For three substances, binding results are on record in publication PMC4823829.

By UniProt entry, the sequences of proteins in these tests, tags left out.
UniProt Q39255: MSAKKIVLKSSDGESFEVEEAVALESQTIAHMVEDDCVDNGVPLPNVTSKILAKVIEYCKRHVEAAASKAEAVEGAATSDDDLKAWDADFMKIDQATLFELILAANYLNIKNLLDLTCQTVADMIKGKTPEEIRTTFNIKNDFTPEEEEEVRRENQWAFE
UniProt Q7XA73: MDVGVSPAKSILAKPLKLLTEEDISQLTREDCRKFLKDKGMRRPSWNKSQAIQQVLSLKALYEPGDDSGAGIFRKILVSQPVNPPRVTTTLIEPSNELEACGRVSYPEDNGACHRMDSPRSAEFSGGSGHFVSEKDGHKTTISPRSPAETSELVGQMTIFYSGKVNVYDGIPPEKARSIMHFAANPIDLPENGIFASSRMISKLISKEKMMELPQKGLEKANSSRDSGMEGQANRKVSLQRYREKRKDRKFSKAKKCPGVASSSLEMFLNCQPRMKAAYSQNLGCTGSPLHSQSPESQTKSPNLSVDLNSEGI
UniProt Q94AH6: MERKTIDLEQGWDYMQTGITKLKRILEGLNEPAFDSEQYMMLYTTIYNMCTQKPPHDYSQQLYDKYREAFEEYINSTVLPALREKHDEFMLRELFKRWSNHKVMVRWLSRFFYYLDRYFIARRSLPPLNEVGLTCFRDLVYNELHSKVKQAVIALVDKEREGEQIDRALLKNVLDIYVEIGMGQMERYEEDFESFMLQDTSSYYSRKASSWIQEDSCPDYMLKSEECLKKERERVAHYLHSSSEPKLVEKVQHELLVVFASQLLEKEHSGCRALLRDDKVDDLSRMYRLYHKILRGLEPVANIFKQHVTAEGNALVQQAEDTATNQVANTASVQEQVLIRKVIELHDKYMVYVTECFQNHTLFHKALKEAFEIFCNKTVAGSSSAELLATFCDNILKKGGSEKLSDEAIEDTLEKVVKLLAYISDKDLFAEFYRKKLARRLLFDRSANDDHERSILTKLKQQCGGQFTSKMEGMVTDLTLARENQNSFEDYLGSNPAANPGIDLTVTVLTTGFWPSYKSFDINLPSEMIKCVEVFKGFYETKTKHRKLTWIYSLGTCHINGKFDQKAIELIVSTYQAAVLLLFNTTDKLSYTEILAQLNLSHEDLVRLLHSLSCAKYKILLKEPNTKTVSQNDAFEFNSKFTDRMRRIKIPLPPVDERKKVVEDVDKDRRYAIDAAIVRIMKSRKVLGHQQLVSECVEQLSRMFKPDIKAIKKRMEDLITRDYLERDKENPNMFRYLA

These are yes or no findings as the source states them, for the method shown. Binding seen in cells or lysates may run through a third protein. A yes stands for co-enrichment or nearness to the bait. Other partners may have been found. Sequences can lack the tags named with a protein.

The target in the assay is T1, GFP-SAP (STERILE APETALA) from 35S:GFP-SAP transgenic Arabidopsis plants (Arabidopsis thaliana) (UniProt Q9FKH1).
T1 sequence: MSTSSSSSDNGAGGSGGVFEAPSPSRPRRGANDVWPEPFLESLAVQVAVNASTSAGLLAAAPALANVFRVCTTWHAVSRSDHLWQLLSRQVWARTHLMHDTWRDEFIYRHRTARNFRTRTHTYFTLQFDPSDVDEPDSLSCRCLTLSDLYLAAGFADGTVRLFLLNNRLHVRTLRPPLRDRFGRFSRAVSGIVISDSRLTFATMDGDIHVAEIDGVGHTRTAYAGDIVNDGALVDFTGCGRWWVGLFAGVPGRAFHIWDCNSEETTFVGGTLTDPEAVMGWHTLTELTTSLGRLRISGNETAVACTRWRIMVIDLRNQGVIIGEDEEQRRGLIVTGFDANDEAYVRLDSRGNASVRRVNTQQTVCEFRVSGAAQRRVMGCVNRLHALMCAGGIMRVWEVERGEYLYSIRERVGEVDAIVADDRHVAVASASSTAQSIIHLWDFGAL
The experiment in a line: affinity purification with mass spectrometry; total proteins of 35S:GFP-SAP transgenic Arabidopsis plants incubated with GFP-Trap-A agarose beads 1 h at 4 °C; 50 mM Tris-HCl pH 7.5, 150 mM NaCl, 20% glycerol, Triton X-100, 1 mM EDTA; LC-MS/MS.
In the case of “ASK1, endogenous in Arabidopsis plants (from UniProt Q39255 1-160)”, the binding result is “binds”.
In the case of “PEAPOD1 (PPD1), endogenous in Arabidopsis plants (from UniProt Q7XA73 1-313)”, the binding result is recorded as “binds”.
For “CUL1 (Cullin1), endogenous in Arabidopsis plants (from UniProt Q94AH6 1-738)”, the binding result is “binds”.
